Results are given in words; binding and its absence hold for the method and conditions named. In cells and extracts the contact can be indirect. Some binding calls cover weakened binding; strength is not graded here.
Target: T1, Protein tyrosine phosphatase 1B (PTP1B) (human (endogenous in BGC823 and XN0422)) (UniProt P18031)
T1 sequence: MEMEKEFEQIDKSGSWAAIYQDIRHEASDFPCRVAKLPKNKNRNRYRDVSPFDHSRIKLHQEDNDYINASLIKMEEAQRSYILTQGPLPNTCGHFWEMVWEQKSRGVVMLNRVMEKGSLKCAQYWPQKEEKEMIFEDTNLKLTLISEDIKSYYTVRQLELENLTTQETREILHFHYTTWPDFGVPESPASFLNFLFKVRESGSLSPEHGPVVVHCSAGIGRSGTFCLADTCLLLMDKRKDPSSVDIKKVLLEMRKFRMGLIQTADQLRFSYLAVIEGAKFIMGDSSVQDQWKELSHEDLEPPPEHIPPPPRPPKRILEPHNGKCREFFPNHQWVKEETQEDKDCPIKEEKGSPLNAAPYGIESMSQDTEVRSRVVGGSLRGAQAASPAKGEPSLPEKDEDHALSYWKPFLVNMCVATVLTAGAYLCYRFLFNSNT
Assay: co-IP; Pierce Co-IP kit; 10 ug antibody or matched IgG immobilised on AminoLink Plus resin, incubated with 500 uL lysate of PLXDC2-overexpressing (c-Myc tag) BGC823 and XN0422 cells overnight at 4 °C; eluate immunoblotted

Chains of the proteins cited; added tags and fusions are not shown. Residues count along the entry.
UniProt Q6UX71, residues 31-529: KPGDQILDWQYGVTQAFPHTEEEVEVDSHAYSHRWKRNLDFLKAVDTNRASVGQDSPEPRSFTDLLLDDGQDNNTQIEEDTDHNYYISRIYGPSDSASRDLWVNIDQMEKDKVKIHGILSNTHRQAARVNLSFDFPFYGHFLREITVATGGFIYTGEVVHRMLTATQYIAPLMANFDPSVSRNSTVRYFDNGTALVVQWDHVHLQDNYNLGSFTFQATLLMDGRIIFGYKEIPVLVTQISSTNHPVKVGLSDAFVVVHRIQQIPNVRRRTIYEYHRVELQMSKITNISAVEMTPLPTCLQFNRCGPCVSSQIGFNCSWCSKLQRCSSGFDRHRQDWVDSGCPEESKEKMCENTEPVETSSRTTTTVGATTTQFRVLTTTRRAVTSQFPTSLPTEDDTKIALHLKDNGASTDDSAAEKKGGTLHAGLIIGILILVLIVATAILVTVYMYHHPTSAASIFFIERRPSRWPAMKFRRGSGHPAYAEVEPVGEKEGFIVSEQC

Question: Which binding does the source give for “Plexin-domain containing 2 (PLXDC2), human full-length with c-Myc tag (from UniProt Q6UX71 31-529)” here?
Answer: binds
